Measured data: PubChem BioAssay AID504791 (Drosophila RNAi Screening Center, 2011)
The screen tested about 23,000 reagents; below is an unselected part of those that have a named target and a result. Over the whole deposit, 199 (0.86%) are marked active. 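Plate-scaled ratios behind the calls are not deposited; printed light signals are raw; many rows marked increased or decreased are still called inactive.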 A plus sign joins genes that one reagent is predicted to hit. No sequences are given here. Not given: the direction of the score.

- Purpose: 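Genes whose knock-down strengthens or weakens small-RNA reporter silencing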 (primary screen)
- System: Drosophila S2-derived reporter cells
- Reagents: long dsRNA against Drosophila genes, about 150-250 ng dsRNA per well (siRNA assay); about 80-120 ng (miRNA assay)
- Time to read-out: about 5 days (siRNA assay); about 4 days (miRNA assay)
- Treatment: copper sulfate induction of reporters: 25 µM (siRNA assay); 200 mM stated (miRNA assay), 1-2 days before reading
- Measurement: 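Per-well ratio of Renilla over firefly light, expressed relative to that plate's average ratio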
- Active means: 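First-pass picks had plate-scaled ratios over 1.5 for the siRNA assay, over 1.6 for the miRNA assay, or under 0.6; two distinct dsRNAs had to score alike on retest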

predicted target,DRSC id,stable siRNA reporter change,miRNA reporter change,"stable assay Renilla, run 1 (luminescence)","stable assay firefly, run 1 (luminescence)",call
"Sr-CII (Scavenger receptor class C, type II)",DRSC07557,,,6055,3.24e5,inactive
mag (magro),DRSC11787,,,10022,3.35e5,inactive
Fkbp14 (FK506-binding protein 14),DRSC04615,,,20006,7.85e5,inactive
Prip,DRSC07044,,,8247,5.34e5,inactive
CG34149,DRSC14537,,,7612,3.15e5,inactive
CG32206,DRSC09602,,,5155,3.45e5,inactive
CG32206,DRSC10094,,,7188,3.55e5,inactive
CG32206,DRSC10095,,,7396,3.40e5,inactive
CG32206,DRSC10096,,,6411,4.21e5,inactive
CG32206,DRSC11080,,,7335,4.64e5,inactive
Gr36b (Gustatory receptor 36b),DRSC21637,,,9222,4.70e5,inactive
CG1924,DRSC19823,,,4332,3.91e5,inactive
AstC-R2 (Allatostatin C receptor 2),DRSC10051,,,7648,4.29e5,inactive
CG9497,DRSC03234,,,13939,8.73e5,inactive
TwdlJ (TweedleJ),DRSC15812,reporter ratio lowered past the hit cutoff,,6203,7.26e5,inactive
CG8042,DRSC09676,,,6552,3.50e5,inactive
CG10013,DRSC14175,,,6967,2.80e5,inactive
Alp2 (Alkaline phosphatase 2),DRSC04354,,,6630,5.21e5,inactive
LSm3 (Like Sm 3),DRSC15920,,,6978,3.32e5,inactive
S1P (Site-1 protease),DRSC11810,,,7554,5.41e5,inactive
CG8192,DRSC07101,,,8071,2.38e5,inactive
AANATL6 (Arylalkylamine N-acetyltransferase-like 6),DRSC06773,,,6775,3.08e5,inactive
CG11342,DRSC08175,,,5774,3.97e5,inactive
Syt14 (Synaptotagmin 14),DRSC12331,,,7379,3.79e5,inactive
CG17470,DRSC02621,,,3.65e5,2.25e6,inactive
CG15236,DRSC04970,,,5699,4.22e5,inactive
CG15236,DRSC21396,,,11212,4.42e5,inactive
CG15236,DRSC23025,,,3783,3.48e5,inactive
CG15312,DRSC18000,,,6366,2.92e5,inactive
H (Hairless),DRSC16692,,,8402,3.55e5,inactive
Sur (Sulfonylurea receptor),DRSC03447,,,38000,3.14e5,inactive
CG32485,DRSC22666,,,4203,4.05e5,inactive
Bap170 (Brahma associated protein 170kD),DRSC04964,,,8628,1.76e6,inactive
Bap170 (Brahma associated protein 170kD),DRSC21826,,,8461,4.90e5,inactive
Pif2 (PFTAIRE-interacting factor 2),DRSC12525,,,7459,3.84e5,inactive
CG3348,DRSC15480,,,6458,4.21e5,inactive

In a second layout: results already given
predicted target	DRSC id	stable siRNA reporter change	miRNA reporter change	stable assay Renilla, run 1 (luminescence)	stable assay firefly, run 1 (luminescence)	call
CG32206	DRSC11080			7335	4.64e5	inactive
Gr36b (Gustatory receptor 36b)	DRSC21637			9222	4.70e5	inactive
CG1924	DRSC19823			4332	3.91e5	inactive
AstC-R2 (Allatostatin C receptor 2)	DRSC10051			7648	4.29e5	inactive
CG9497	DRSC03234			13939	8.73e5	inactive

The listing continues.
predicted target,DRSC id,stable siRNA reporter change,miRNA reporter change,"stable assay Renilla, run 1 (luminescence)","stable assay firefly, run 1 (luminescence)",call
Ets96B,DRSC16127,,reporter ratio lowered past the hit cutoff,4964,2.80e5,active
Dup99B (Ductus ejaculatorius peptide 99B),DRSC22877,,,4727,4.61e5,inactive
CG6765,DRSC10706,,,6010,4.00e5,inactive
CG7218,DRSC16216,,,9685,4.69e5,inactive
Orai,DRSC05684,,,6027,3.56e5,inactive
Orai,DRSC22061,,,9614,5.62e5,inactive
Acsf3 (Acyl-CoA synthetase family member 3),DRSC18146,,,5556,3.06e5,inactive
Dek,DRSC07418,,reporter ratio lowered past the hit cutoff,6520,3.33e5,inactive
Roe1,DRSC07534,,,8219,5.94e5,inactive
Hinfp (Histone H4 transcription factor),DRSC18484,,,6075,4.63e5,inactive
Slc25A46b,DRSC02888,,,6972,3.52e5,inactive
hkb (huckebein),DRSC12377,,,3912,3.96e5,inactive
CG4880,DRSC19923,,,7910,4.33e5,inactive
Xrcc2 (X-ray repair cross complementing 2),DRSC19984,,,5882,5.28e5,inactive
CycG (Cyclin G),DRSC14324,,,7244,4.10e5,inactive
CycG (Cyclin G),DRSC23345,,,4679,3.71e5,inactive
CG5888,DRSC01929,,,41541,1.21e6,inactive
lectin-24A,DRSC00604,,,7642,4.73e5,inactive
CG7910,DRSC16341,,,8037,5.16e5,inactive
Obp50c + Obp50b,DRSC05482,,,6658,3.55e5,inactive
CR42546 (pseudo),DRSC03711,,,6731,4.20e5,inactive
Cog8 (Component of oligomeric golgi complex 8),DRSC02961,,,6224,5.00e5,inactive
CG15602,DRSC19671,,,4283,3.53e5,inactive
Ldaf1 (Lipid droplet assembly factor 1),DRSC17963,,,7398,5.08e5,inactive
CG7017,DRSC10762,,,5886,4.07e5,inactive
CG6659,DRSC20003,,,8878,6.36e5,inactive
Ca-alpha1D (Ca[2+]-channel protein alpha[[1]] subunit D),DRSC03284,,,90646,1.21e6,inactive
RecQ5 (RecQ5 helicase),DRSC11266,,,8083,3.03e5,inactive
CG14331,DRSC14810,,,7100,4.03e5,inactive
stau (staufen),DRSC07698,,,8334,2.74e5,inactive
CG14443,DRSC17936,,,5934,2.85e5,inactive
CG17929,DRSC15291,,,7340,4.25e5,inactive
Rab26,DRSC11837,,,8773,3.67e5,inactive
Rab26,DRSC11838,,,7587,4.19e5,inactive
Rab26,DRSC11839,,,6382,4.83e5,inactive
Hs2st (Heparan sulfate 2-O-sulfotransferase),DRSC03348,,,16760,1.38e6,inactive
CG9360,DRSC20180,,,5132,4.74e5,inactive
CG3342,DRSC18304,,,7200,3.78e5,inactive
yellow-b,DRSC03639,,,7970,1.67e6,inactive
CG1674,DRSC17142,,,7347,4.83e5,inactive
ATP6AP2 (ATPase H+ transporting accessory protein 2),DRSC16420,,,5960,4.38e5,inactive
COX6AL2 (Cytochrome c oxidase subunit 6A-like 2),DRSC10082,,,6512,4.08e5,inactive
Eip63F-1 (Ecdysone-induced protein 63F 1),DRSC08072,,,4387,2.97e5,inactive
Eip63F-1 (Ecdysone-induced protein 63F 1),DRSC08659,,,7447,4.98e5,inactive
CG12641 (retired record),DRSC17848,,,4579,2.66e5,inactive
CG12641 (retired record),DRSC23059,,,3359,2.86e5,inactive
CG11444,DRSC17784,,,10965,5.76e5,inactive
